# This is one part of the list. The data scatter; read single values as rough.
# Compound: ClCC(=O)N[C@@H]1CCCc2ccccc12
# Experiment: log2 mean competition ratio of IA-DTB cysteine labelling (DMSO/compound) (log2 ratio); higher = stronger cysteine engagement by compound
# Conditions: 50 µM; treatment time: 4 h; cell line lysate: HEK293T
# Description: (§1)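 IA-DTB competitive cysteine chemoproteomics in HEK293T RIPA lysate. Lysates were treated with compound 29 or 30 at 50 or 200 µM for 4 h, then IA-DTB (500 µM, 1 h), trypsin-digested, NeutrAvidin-enriched and analysed by diaPASEF. Competition ratio = intensity DMSO / intensity compound (n=4 treated, n=64 DMSO); binding: mean log2 CR ≥ 1 and p ≤ 0.05 plus QC filters. Target is the cysteine site.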
row,Target,log2 mean competition ratio
1,CLTCL1 C459 (UniProt P53675),0.156
2,CHST14 C117 (UniProt Q8NCH0),0.19
3,COG4 C310 (UniProt Q9H9E3),-0.0109
4,CLTCL1 C617 (UniProt P53675),0.0957
5,CHEK2 C231 (UniProt O96017),-0.0985
6,COIL C239 (UniProt P38432),0.0725
7,CNBP C111 (UniProt P62633),-0.189
8,COG3 C697 (UniProt Q96JB2),-0.0283
9,COMMD4 C107 (UniProt Q9H0A8),0.259

# Same assay, conditions: 200 µM; treatment time: 4 h; cell line lysate: HEK293T
row,Target,log2 mean competition ratio
1,CLASP2 C662 (UniProt O75122),-0.0105
2,CLMN C445,-0.22
3,CPS1 C225 (UniProt P31327),-0.227
4,COBL C1032 (UniProt O75128),0.319
5,CPSF3 C345 (UniProt Q9UKF6),-0.204
6,COG7 C475 (UniProt P83436),-0.00996
7,CLTCL1 C934 (UniProt P53675),0.0689
8,CNKSR3 C191,0.303
9,COG2 C358 (UniProt Q14746),0.187
10,COBLL1 C177 (UniProt Q53SF7),0.16
11,CIC C1432,-0.00597
12,CLEC16A C657 (UniProt Q2KHT3),0.534
13,CPSF4 C41 (UniProt O95639),-0.178
14,CLGN C511 (UniProt O14967),0.0816
15,COBL C654 (UniProt O75128),-0.125
16,COPG1 C169 (UniProt Q9Y678),-0.262
17,COIL C126 (UniProt P38432),0.0401
18,CPSF6 C476 (UniProt Q16630),0.326
19,COQ7 C137 (UniProt Q99807),-0.15

row,Target,log2 mean competition ratio
1,CIAO1 C322 (UniProt O76071),0.0122
2,COLEC12 C27,0.0456
3,CHST11 C128 (UniProt Q9NPF2),0.679
4,COQ8A C620 (UniProt Q8NI60),0.146
5,CRBN C205 (UniProt Q96SW2),-0.0733
6,COPB2 C741 (UniProt P35606),0.207
7,CKAP5 C592 (UniProt Q14008),0.0474
8,COMMD6 C35 (UniProt Q7Z4G1),0.21
9,CLK3 C321 (UniProt P49761),0.116
10,CLTCL1 C459 (UniProt P53675),0.215
11,CHST14 C117 (UniProt Q8NCH0),0.092
12,COG4 C310 (UniProt Q9H9E3),-0.0265
13,CLTCL1 C617 (UniProt P53675),-0.313
14,CHEK2 C231 (UniProt O96017),0.0736
15,COIL C239 (UniProt P38432),-0.00717
16,CNBP C111 (UniProt P62633),0.158
17,COG3 C697 (UniProt Q96JB2),-0.237
18,COMMD4 C107 (UniProt Q9H0A8),-0.17

# Compound: ClCC(=O)N[C@H]1CCCc2ccccc12
# Experiment: as above
# Conditions: 50 µM; treatment time: 4 h; cell line lysate: HEK293T
# Description: as §1
row,Target,log2 mean competition ratio
1,CLASP2 C662 (UniProt O75122),-0.146
2,CLMN C445,-0.00685
3,CPS1 C225 (UniProt P31327),0.112
4,COBL C1032 (UniProt O75128),-0.422
5,CPSF3 C345 (UniProt Q9UKF6),0.286
6,COG7 C475 (UniProt P83436),-0.263
7,CLTCL1 C934 (UniProt P53675),-0.451
8,CNKSR3 C191,-0.211
9,COG2 C358 (UniProt Q14746),-0.0861
10,COBLL1 C177 (UniProt Q53SF7),-0.457
11,CIC C1432,-0.0271
12,CLEC16A C657 (UniProt Q2KHT3),-0.289
13,CPSF4 C41 (UniProt O95639),-0.145
14,CLGN C511 (UniProt O14967),-0.143
15,COBL C654 (UniProt O75128),-0.192
16,COPG1 C169 (UniProt Q9Y678),0.382
17,COIL C126 (UniProt P38432),0.0885
18,CPSF6 C476 (UniProt Q16630),-0.754
19,COQ7 C137 (UniProt Q99807),-0.221

row,Target,log2 mean competition ratio
1,CIAO1 C322 (UniProt O76071),0.298
2,COLEC12 C27,-0.317
3,CHST11 C128 (UniProt Q9NPF2),0.259
4,COQ8A C620 (UniProt Q8NI60),-0.126
5,CRBN C205 (UniProt Q96SW2),-0.328
6,COPB2 C741 (UniProt P35606),-0.741
7,CKAP5 C592 (UniProt Q14008),-0.113
8,COMMD6 C35 (UniProt Q7Z4G1),-0.0866
9,CLK3 C321 (UniProt P49761),0.287
10,CLTCL1 C459 (UniProt P53675),0.0585
11,CHST14 C117 (UniProt Q8NCH0),-0.0145
12,COG4 C310 (UniProt Q9H9E3),0.0173
13,CLTCL1 C617 (UniProt P53675),-0.0213
14,CHEK2 C231 (UniProt O96017),0.04
15,COIL C239 (UniProt P38432),0.351
16,CNBP C111 (UniProt P62633),-0.153
17,COG3 C697 (UniProt Q96JB2),-0.137
18,COMMD4 C107 (UniProt Q9H0A8),0.343
